Test [1] deals with ReNCell VM. As to the kind of experiment: neuronal differentiation score (DCX+ cell fraction vs untreated, manual image score) (score (-3 to 3)); higher = more neuronal differentiation. To be noted: 2 uM, 2 weeks.
Test [2] relates to ReNCell VM. Briefly: dopaminergic neuron differentiation score (TH+ cell fraction vs untreated, manual image score) (score (0 to 3)); higher = more TH+ dopaminergic neuron differentiation. The note with it: 2 uM, 4 weeks, BDNF 10 ng/ml + GDNF 10 ng/ml.

Structures are written as SMILES. Counter-ions that a name gives are not always drawn. Some of the results follow. Repeats in this data set agree poorly, so a single value says little.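 ReNCell VM, a human fetal ventral-midbrain neural progenitor line, was differentiated without mitogens. Blinded raters scored images stained for doublecortin (early neurons) or tyrosine hydroxylase (dopaminergic neurons) against untreated wells (0 = no change). Scores were averaged across repeats and both raters, and compounds averaging 2 or more were selected as hits for retesting.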

With `O=C(O)CCCO`, the neuronal differentiation score in test [1] (library: Spectrum) was inactive: 0. Besides, the “dopaminergic neuron differentiation score” value in test [2] (library: Spectrum) is inactive: 0.

As for `COc1ccc2c(c1O)-c1c(OC)c(OC)cc3c1[C@H](C2)N(C)CC3`, in test [1] (library: Spectrum), the neuronal differentiation score was inactive: 0. Also, the “dopaminergic neuron differentiation score” value in test [2] (library: Spectrum) was inactive: 0.

For the compound `CCOC(=O)C1C(C=C(C)C)C1(C)C` (stereo unspecified), the neuronal differentiation score in test [1] (library: Spectrum) was inactive: 0. For the same compound, the “dopaminergic neuron differentiation score” value in test [2] (library: Spectrum) is inactive: 0.

For the compound `CC(=O)C1CCC2C3CCC4C[C@H](O)CCC4(C)C3C[C@H](O)C12C` (stereo partly drawn) [DIHYDROXY (3alpha,12alpha)PREGNAN-20-ONE], the neuronal differentiation score in test [1] (library: Spectrum) was inactive: 0. Moreover, the “dopaminergic neuron differentiation score” value in test [2] (library: Spectrum) was inactive: 0.

Turning to `C=CCN(C1=NCCN1)c1c(Cl)cccc1Cl` [Alinidine], the neuronal differentiation score in test [1] (library: LOPAC) is inactive: 0. The “dopaminergic neuron differentiation score” value in test [2] (library: LOPAC) is inactive: 0.

Take `COc1ccc(C(CN(C)C)C2(O)CCCCC2)cc1` (stereo unspecified): the neuronal differentiation score in test [1] (library: Spectrum) was inactive: 0. Besides, the “dopaminergic neuron differentiation score” value in test [2] (library: Spectrum) is inactive: 0.

As for `CC(=O)[O][Hg][c]1ccccc1`, the neuronal differentiation score in test [1] (library: Spectrum) is inactive: 0. Further, in test [2] (library: Spectrum), the “dopaminergic neuron differentiation score” value was inactive: 0.

Turning to `CC(C)(O)C(Cl)(Cl)Cl`, the neuronal differentiation score in test [1] (library: Spectrum) is inactive: 0. In addition, the “dopaminergic neuron differentiation score” value in test [2] (library: Spectrum) is inactive: 0.

`C[N+](C)(C)CCCCCCCCCC[N+](C)(C)C` [Decamethonium bromide]: in test [1] (library: Prestwick), the neuronal differentiation score is inactive: 0. Besides, the “dopaminergic neuron differentiation score” value in test [2] (library: Prestwick) is inactive: 0.

On to `C[C@]12CC[C@H](O)C[C@@H]1CC[C@@H]1[C@@H]2CC[C@]2(C)C(=O)CC[C@@H]12` [Epiandrosterone], for which the neuronal differentiation score in test [1] (library: Prestwick) is inactive: 0. The “dopaminergic neuron differentiation score” value in test [2] (library: Prestwick) is inactive: 0.

In the case of `CN1CCC2=C[C@H](O)[C@H]3OC(=O)c4cc5c(cc4[C@H]3[C@@H]21)OCO5` [hippeastrine], the neuronal differentiation score in test [1] (library: Natural) is inactive: 0. Moreover, the “dopaminergic neuron differentiation score” value in test [2] (library: Natural) was inactive: 0.

For the compound `CNc1ccc2oc(C[C@H]3O[C@@]4(CC[C@H]3C)O[C@H]([C@H](C)C(=O)c3ccc[nH]3)[C@H](C)C[C@H]4C)nc2c1C(=O)O` [Calcimycin], the neuronal differentiation score in test [1] (library: LOPAC) was inactive: 0. Also, the “dopaminergic neuron differentiation score” value in test [2] (library: LOPAC) is inactive: 0.

As to `Fc1ccc(C(OCCN2CCN(C/C=C/c3ccccc3)CC2)c2ccc(F)cc2)cc1`, the neuronal differentiation score in test [1] (library: Tocriscreen) is inactive: 0. Also, in test [2] (library: Tocriscreen), the “dopaminergic neuron differentiation score” value is inactive: 0.

`CCC(=O)O[C@H]1CC[C@H]2[C@@H]3CCC4=CC(=O)CC[C@]4(C)[C@H]3CC[C@]12C` [Testosterone propionate]: the neuronal differentiation score in test [1] (library: Prestwick) is inactive: 0. Besides, the “dopaminergic neuron differentiation score” value in test [2] (library: Prestwick) was inactive: 0.

As for `CC1=CCCC2C1(C)CCC(C)C2(C)CC/C(C)=C/Cn1c[n+](C)c2c(N)ncnc21` (stereo unspecified) [AGELASINE (stereochemistry of diterpene unknown)], in test [1] (library: Spectrum), the neuronal differentiation score was inactive: 0. Besides, the “dopaminergic neuron differentiation score” value in test [2] (library: Spectrum) was inactive: 0.

Consider `C[C@H](N)[C@H](O)c1ccc(O)c(O)c1` [Levonordefrin], for which the neuronal differentiation score in test [1] (library: Prestwick) was inactive: 0. Also, the “dopaminergic neuron differentiation score” value in test [2] (library: Prestwick) is inactive: 0.

In the case of `CN1[C@@H]2CC[C@H]1C[C@@H](OC(=O)c1cc(Cl)cc(Cl)c1)C2`, the neuronal differentiation score in test [1] (library: Tocriscreen) is inactive: 0. Besides, the “dopaminergic neuron differentiation score” value in test [2] (library: Tocriscreen) was inactive: 0.

As for `CCCn1c(C)c(C(=O)c2cccc3ccccc23)c2ccccc21`, in test [1] (library: LOPAC), the neuronal differentiation score was inactive: 0. For the same compound, the “dopaminergic neuron differentiation score” value in test [2] (library: LOPAC) is inactive: 1.

For `OC[C@@H]1CCCN2CCCC[C@H]12`, the neuronal differentiation score in test [1] (library: Spectrum) was inactive: 0. The “dopaminergic neuron differentiation score” value in test [2] (library: Spectrum) was inactive: 1.

As for `CCC12C=CCN3CC[C@@]4(c5ccc(OC)cc5N(C)[C@H]4[C@@](O)(C(=O)OC)[C@@H]1OC(C)=O)[C@@H]32` (stereo partly specified) [vindoline], the neuronal differentiation score in test [1] (library: Natural) was inactive: 0. The “dopaminergic neuron differentiation score” value in test [2] (library: Natural) is inactive: 0.

Consider `CCN(CCCl)Cc1ccccc1Br` [DSP-4 hydrochloride], for which, in test [1] (library: LOPAC), the neuronal differentiation score was inactive: 0. For the same compound, in test [2] (library: LOPAC), the “dopaminergic neuron differentiation score” value was active: 3.

Take `Oc1cc(Cl)ccc1Oc1ccc(Cl)cc1Cl`: in test [1] (library: Spectrum), the neuronal differentiation score is inactive: 1. For the same compound, the “dopaminergic neuron differentiation score” value in test [2] (library: Spectrum) was inactive: 0.

On to `C[C@]12CCC(=O)C[C@@H]1CC[C@@H]1[C@@H]2CC[C@]2(C)C(=O)CC[C@@H]12` [5alpha-ANDROSTAN-3,17-DIONE], for which the neuronal differentiation score in test [1] (library: Spectrum) is inactive: 0. In test [2] (library: Spectrum), the “dopaminergic neuron differentiation score” value is inactive: 0.

Regarding `C[N+]12CCC(CC1)C(OC(=O)C(O)(c1ccccc1)c1ccccc1)C2` (stereo unspecified) [Clidinium bromide], in test [1] (library: Prestwick), the neuronal differentiation score was inactive: 0. The “dopaminergic neuron differentiation score” value in test [2] (library: Prestwick) is inactive: 0.

As to `N[C@@H](CCl)C(=O)O` [beta-Chloro-L-alanine hydrochloride], the neuronal differentiation score in test [1] (library: LOPAC) was inactive: 0. For the same compound, the “dopaminergic neuron differentiation score” value in test [2] (library: LOPAC) is inactive: 0.

Regarding `CC(C)n1cnc2c(C(=O)N[C@H]3CN4CCC3CC4)cc(Cl)cc21`, the neuronal differentiation score in test [1] (library: Tocriscreen) is inactive: 0. In test [2] (library: Tocriscreen), the “dopaminergic neuron differentiation score” value was inactive: 0.

For `CCCCCCC[n+]1ccc(-c2cc[n+](CCCCCCC)cc2)cc1` [DHBP dibromide], in test [1] (library: Tocriscreen), the neuronal differentiation score is inactive: 0. Also, the “dopaminergic neuron differentiation score” value in test [2] (library: Tocriscreen) is inactive: 0.

For the compound `CN(C)Cc1c[nH]c2ccccc12`, in test [1] (library: Spectrum), the neuronal differentiation score is inactive: 0. Besides, in test [2] (library: Spectrum), the “dopaminergic neuron differentiation score” value was inactive: 0.

Values taken from the supplement of paper PMC4635364.
